Percent effect of library compounds

From ChEMBL document CHEMBL3988442, “University of Dundee, Small-Polar-MMV Screening Library” (2021).

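Whole-cell growth test on Mycobacterium tuberculosis, read after 3 days in glucose-containing 7H9 medium; the read-out is not stated. Tested at 500 µM. Direction is inferred from retests: higher values go with more growth inhibition. Of about 18,000 compounds tested this way, about 1,400 (7.9%) reached 50% or more in at least one test.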

The filed quantity is “Percent Effect” (%). How 0% and 100% were set is not recorded. Most values in the screen are low, and negative values occur. Compounds were drawn at random from those tested, without regard to their results.

Result for OC1(CN2CCCC2)CCNCC1 was -17.66%.
Result for CCO[C@H]1CN(Cc2ccc3c(c2)CCO3)C[C@@H]1O was 13.22%.
Result for CC1(C)CCN(C(=O)Nc2ccsc2)CCS1(=O)=O was 2.032%.
Result for CN(Cc1cnn(C)c1)C(=O)c1cc(Br)c[nH]1 was 52.47%.
Result for NCc1ccc(N2CCCS2(=O)=O)c(F)c1 was 1.737%.
Result for NC(=O)C1CCCN1C(=O)CSc1ccccc1Cl (stereo not drawn) was 25.61%.
Result for CCc1[nH]nc(N)c1-c1ccc2c(c1)OCO2 was 39.54%.
Result for Cc1cc(CNc2cnccn2)ccc1-n1cncn1 was 31.37%.
Result for Cc1ccccc1C(C)CC(=O)NC(C)(CO)CO (stereo not drawn) was 34.07%.
Result for C[C@@H]1CN(C(=O)c2ccc(=O)[nH]c2)C[C@]1(C)O was -4.105%.
Result for CN1CCCC2(CCN(C(=O)N3CCCC3)C2)C1=O (stereo not drawn) was 4.425%.
Result for CN(C)CC(=O)N[C@@H]1CCOC[C@H]1OCc1cscn1 was 16.21%.
Result for O=C(NC1CCS(=O)(=O)C1)c1cc(Br)c[nH]1 (stereo not drawn) was 16.62%.
Result for CC(C)c1nc(-c2cccc(O)c2)n[nH]1 was 37.43%.
Result for Cc1ccc(NC(=O)N2CCCN(C)CC2)cc1 was 5.684%.
Result for O=C(CN1CCNCC1)c1ccccc1Cl was 11.98%.
Result for O=C(c1cc(-c2ccccc2)[nH]n1)N1CCOCC1 was 12.85%.
Result for CCCNC(=O)c1ccc2snnc2c1 was 59.26%.
Result for CSc1ccccc1C(=O)NCCSc1nnnn1C was 14.92%.
Result for CC(C)[C@@H](CO)NC(=O)c1ccn(C2CCCC2)n1 was 1.343%.
Result for Cc1nn(CCC(=O)N[C@H]2C[C@@H]3OCC[C@H]23)c(C)c1C was -2.609%.
Result for CCn1cc(NC(=O)c2ccc(Br)o2)c(C(N)=O)n1 was -7.515%.
Result for CC(C)c1nccn1C1CCCNC1 (stereo not drawn) was 3.415%.
Result for COCCCNC(=O)NCCC(=O)OC(C)(C)C was 2.4%.
Result for CC(CO)NCCN1CCc2ccccc2C1 (stereo not drawn) was 21.22%.
Result for COC[C@]1(O)CCN(Cc2ncc[nH]2)CC1(C)C was 5.713%.
Result for Cc1c[nH]c(=O)c(CN)c1 was -1.961%.
Result for CCNc1ncc(C(=O)NC2CCCCNC2=O)cn1 (stereo not drawn) was -3.319%.
Result for Cc1cccc(CCC(=O)N2CCNCC2)c1 was 24.48%.
Result for Cn1cc(CN2C[C@@H](F)C[C@H]2CN)cn1 was 17.99%.
Result for CC(NS(=O)(=O)c1cccc(Br)c1)c1nc[nH]n1 (stereo not drawn) was 12.32%.
Result for CN(C)Cc1ccc(CN)s1 was 15.64%.
Result for CCNC(=O)NCCOC(=O)c1cccc2cc[nH]c12 was 52.58%.
Result for NC(=O)C1(NCc2ccccc2F)CCOCC1 was 10.51%.
Result for OCCC1CCCCN1Cc1cccnc1 (stereo not drawn) was -51.92%.
Result for O=C(NC1CCC(O)CC1)OCC(F)(F)F (stereo not drawn) was 27.9%.
Result for COC(=O)c1ccc(C)c(CO)c1 was 17.94%.
Result for NCC(NC(=O)c1ccccc1C(F)(F)F)C1CC1 (stereo not drawn) was 7.392%.
Result for Cc1nccn1CC1CCN(CC(O)CO)CC1 (stereo not drawn) was -6.618%.
Result for CC(O)CNC(=O)Nc1ccccc1N1CCCC1 (stereo not drawn) was 3.607%.
Result for NC(=O)c1csc(C(=O)Nc2cnn(CC(F)F)c2)c1 was 22.8%.
Result for O=C(NCCc1ccccn1)NCc1ccco1 was 17.4%.
Result for CCn1cc(C2CSCCN2)cn1 (stereo not drawn) was 2.47%.
Result for C=C(C)CNC(=O)Nc1cnn(CCN(C)C)c1 was -6.255%.
Result for O=C(CSc1ncccc1Br)N1CCCC1 was 78.55%.

Repeated from the top, 4 entries:

Compound,effect
OC1(CN2CCCC2)CCNCC1,-17.66
CCO[C@H]1CN(Cc2ccc3c(c2)CCO3)C[C@@H]1O,13.22
CC1(C)CCN(C(=O)Nc2ccsc2)CCS1(=O)=O,2.032
CN(Cc1cnn(C)c1)C(=O)c1cc(Br)c[nH]1,52.47